Experimental findings from paper PMC11513602 are described below.

By UniProt entry, the sequences of proteins in these tests, tags left out.
UniProt P40763: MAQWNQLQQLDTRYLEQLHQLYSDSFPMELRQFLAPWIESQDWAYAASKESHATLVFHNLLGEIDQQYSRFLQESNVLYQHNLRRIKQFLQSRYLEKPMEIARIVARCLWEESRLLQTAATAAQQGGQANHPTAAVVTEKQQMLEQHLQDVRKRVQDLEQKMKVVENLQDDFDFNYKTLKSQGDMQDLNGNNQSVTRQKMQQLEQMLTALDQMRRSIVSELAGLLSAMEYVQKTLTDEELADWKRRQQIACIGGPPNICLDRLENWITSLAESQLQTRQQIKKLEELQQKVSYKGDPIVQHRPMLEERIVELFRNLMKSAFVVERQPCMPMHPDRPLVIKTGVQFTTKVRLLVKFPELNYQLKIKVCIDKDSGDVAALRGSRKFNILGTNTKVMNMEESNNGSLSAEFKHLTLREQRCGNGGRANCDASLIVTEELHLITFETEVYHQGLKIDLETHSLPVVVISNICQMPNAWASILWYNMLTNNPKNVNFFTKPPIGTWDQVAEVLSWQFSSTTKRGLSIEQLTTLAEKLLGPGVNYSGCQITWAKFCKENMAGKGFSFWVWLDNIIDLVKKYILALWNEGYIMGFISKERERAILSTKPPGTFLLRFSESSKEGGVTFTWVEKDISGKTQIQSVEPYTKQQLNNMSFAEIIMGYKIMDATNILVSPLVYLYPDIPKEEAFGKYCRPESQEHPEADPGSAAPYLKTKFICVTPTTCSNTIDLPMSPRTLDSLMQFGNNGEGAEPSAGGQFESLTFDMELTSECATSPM

For this assay, the target named is T1, Ubiquitin specific protease 21 (HA-USP21) (UniProt Q9UK80).
T1 sequence: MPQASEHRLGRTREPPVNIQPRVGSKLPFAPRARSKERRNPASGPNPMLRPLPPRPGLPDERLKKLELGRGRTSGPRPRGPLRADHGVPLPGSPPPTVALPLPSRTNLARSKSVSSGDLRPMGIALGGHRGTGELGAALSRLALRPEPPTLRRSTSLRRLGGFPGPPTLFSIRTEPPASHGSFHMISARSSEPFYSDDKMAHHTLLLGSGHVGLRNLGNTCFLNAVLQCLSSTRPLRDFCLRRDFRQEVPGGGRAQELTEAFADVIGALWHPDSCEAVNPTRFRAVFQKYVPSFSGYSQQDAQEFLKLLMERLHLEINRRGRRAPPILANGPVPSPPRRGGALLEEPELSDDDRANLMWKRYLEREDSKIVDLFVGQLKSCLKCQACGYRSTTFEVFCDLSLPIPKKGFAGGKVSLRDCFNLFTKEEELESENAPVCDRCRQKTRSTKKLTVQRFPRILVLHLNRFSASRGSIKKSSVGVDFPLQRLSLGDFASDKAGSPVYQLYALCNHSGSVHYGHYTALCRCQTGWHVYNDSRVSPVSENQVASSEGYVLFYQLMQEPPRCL
As to the kind of experiment: co-IP; HEK293T cotransfected with HA-USP21 and Myc-STAT3 for 48 h; lysis buffer 50 mM Tris-HCl pH 7.5, 150 mM NaCl, 0.5% NP40, 1 mM DTT, 10 mM NEM; whole cell lysates incubated overnight at 4 °C with anti-HA beads; three washes; immunoblotting. On the technique in general: Immunoblotting shows a protein as a band on a membrane.

These are yes or no findings as the source states them, for the method shown. In cells and extracts the contact can be indirect. Some binding calls cover weakened binding; strength is not graded here. Tags and fused reporters may be left off the sequences shown.

For the substance “Signal transducer and activator of transcription 3 (Myc-STAT3) (from UniProt P40763 1-770)”, the binding entry is “binds”.
